# Assay results published in paper PMC6337749.
# Chains of the proteins cited; added tags and fusions are not shown.
# UniProt O60673: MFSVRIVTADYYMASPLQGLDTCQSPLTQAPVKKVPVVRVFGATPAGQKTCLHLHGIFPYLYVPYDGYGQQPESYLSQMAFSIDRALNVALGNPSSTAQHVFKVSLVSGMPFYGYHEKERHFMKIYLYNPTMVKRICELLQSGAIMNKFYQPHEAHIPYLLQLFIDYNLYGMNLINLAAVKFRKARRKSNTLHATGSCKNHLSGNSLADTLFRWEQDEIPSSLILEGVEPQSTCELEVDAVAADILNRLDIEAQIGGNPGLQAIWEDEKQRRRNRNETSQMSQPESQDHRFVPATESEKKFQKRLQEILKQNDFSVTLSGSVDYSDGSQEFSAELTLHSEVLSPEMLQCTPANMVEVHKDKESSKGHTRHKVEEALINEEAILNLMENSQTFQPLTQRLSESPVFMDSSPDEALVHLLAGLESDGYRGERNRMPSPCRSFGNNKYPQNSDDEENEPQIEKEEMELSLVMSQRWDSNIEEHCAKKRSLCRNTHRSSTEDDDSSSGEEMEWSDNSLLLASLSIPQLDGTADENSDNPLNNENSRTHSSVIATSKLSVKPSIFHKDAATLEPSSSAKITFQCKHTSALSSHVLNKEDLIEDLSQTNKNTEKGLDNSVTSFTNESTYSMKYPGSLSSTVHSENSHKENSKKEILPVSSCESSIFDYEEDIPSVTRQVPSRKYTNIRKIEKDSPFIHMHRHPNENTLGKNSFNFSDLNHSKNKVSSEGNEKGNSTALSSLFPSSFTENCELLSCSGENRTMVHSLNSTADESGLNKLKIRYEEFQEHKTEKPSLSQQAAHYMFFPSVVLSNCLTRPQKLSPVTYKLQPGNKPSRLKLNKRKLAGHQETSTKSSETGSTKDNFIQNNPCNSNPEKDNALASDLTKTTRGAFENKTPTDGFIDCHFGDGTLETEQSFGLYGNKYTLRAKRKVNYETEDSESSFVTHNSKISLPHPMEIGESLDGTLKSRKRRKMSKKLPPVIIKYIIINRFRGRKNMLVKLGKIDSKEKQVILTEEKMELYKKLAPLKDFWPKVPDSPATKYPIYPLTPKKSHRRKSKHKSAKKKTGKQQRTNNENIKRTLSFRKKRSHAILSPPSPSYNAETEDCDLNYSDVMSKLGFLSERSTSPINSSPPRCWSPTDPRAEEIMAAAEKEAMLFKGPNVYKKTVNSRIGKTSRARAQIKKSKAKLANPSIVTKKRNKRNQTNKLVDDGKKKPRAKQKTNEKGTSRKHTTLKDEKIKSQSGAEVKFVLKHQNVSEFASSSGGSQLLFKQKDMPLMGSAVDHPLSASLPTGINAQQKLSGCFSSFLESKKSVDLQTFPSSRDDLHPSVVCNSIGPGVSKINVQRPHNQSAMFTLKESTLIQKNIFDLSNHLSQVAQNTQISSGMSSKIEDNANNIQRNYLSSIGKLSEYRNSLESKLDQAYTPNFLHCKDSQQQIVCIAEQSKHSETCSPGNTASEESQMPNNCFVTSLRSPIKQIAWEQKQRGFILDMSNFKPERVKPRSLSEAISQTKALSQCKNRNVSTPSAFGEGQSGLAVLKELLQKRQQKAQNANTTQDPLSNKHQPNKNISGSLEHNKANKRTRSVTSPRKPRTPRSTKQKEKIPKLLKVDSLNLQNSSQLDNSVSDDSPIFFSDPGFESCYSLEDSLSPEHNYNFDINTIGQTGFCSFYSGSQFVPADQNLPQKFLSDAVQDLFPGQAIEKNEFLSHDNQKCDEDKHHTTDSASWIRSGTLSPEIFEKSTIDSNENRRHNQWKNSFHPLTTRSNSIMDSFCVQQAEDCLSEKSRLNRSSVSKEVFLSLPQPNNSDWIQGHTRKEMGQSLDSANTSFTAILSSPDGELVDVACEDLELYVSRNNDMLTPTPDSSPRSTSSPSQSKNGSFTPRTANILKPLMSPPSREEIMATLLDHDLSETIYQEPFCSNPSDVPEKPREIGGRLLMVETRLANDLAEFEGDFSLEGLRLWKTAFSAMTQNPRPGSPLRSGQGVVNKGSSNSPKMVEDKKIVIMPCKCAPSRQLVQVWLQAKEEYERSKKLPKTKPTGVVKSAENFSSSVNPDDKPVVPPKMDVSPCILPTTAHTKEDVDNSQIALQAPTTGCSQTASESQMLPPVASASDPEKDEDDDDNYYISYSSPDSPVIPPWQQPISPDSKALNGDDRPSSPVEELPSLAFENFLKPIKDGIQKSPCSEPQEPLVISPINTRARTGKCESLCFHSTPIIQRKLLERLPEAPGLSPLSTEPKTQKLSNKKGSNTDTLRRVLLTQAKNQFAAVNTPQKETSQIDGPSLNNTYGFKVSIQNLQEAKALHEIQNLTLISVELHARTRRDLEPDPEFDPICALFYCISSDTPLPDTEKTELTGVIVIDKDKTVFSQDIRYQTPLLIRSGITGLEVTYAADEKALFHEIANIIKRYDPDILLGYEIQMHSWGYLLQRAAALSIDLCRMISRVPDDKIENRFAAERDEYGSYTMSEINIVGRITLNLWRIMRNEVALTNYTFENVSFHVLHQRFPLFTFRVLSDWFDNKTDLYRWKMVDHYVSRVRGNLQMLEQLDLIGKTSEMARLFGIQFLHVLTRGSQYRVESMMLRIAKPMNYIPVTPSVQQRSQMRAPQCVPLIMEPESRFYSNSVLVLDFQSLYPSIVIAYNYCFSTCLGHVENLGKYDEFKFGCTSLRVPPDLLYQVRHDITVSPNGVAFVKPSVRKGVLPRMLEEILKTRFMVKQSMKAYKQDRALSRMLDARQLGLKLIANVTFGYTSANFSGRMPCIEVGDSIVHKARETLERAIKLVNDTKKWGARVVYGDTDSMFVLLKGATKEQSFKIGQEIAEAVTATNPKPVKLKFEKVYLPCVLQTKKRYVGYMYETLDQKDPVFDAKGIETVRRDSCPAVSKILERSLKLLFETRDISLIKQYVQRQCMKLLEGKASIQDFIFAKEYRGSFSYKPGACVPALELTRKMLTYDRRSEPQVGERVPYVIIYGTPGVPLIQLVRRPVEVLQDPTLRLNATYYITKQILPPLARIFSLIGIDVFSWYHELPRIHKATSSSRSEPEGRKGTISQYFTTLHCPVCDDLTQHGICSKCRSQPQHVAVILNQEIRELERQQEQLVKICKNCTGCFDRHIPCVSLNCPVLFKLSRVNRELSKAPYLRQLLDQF
# No constants are given. Whether binding was seen depends on the method and setting. In cells and extracts the contact can be indirect. Here binding means that the protein was enriched with, or labelled near, the bait; the list need not be complete.
# B1: POLD3 (protein, UniProt Q15054 1-466)
# chain: MADQLYLENIDEFVTDQNKIVTYKWLSYTLGVHVNQAKQMLYDYVERKRKENSGAQLHVTYLVSGSLIQNGHSCHKVAVVREDKLEAVKSKLAVTASIHVYSIQKAMLKDSGPLFNTDYDILKSNLQNCSKFSAIQCAAAVPRAPAESSSSSKKFEQSHLHMSSETQANNELTTNGHGPPASKQVSQQPKGIMGMFASKAAAKTQETNKETKTEAKEVTNASAAGNKAPGKGNMMSNFFGKAAMNKFKVNLDSEQAVKEEKIVEQPTVSVTEPKLATPAGLKKSSKKAEPVKVLQKEKKRGKRVALSDDETKETENMRKKRRRIKLPESDSSEDEVFPDSPGAYEAESPSPPPPPSPPLEPVPKTEPEPPSVKSSSGENKRKRKRVLKSKTYLDGEGCIVTEKVYESESCTDSEEELNMKTSSVHRPPAMTVKKEPREERKGPKKGTAALGKANRQVSITGFFQRK
# Molecular target: full-length REV3L tagged with YFP (human) (UniProt O60673)
# Test: affinity purification with mass spectrometry; same anti-GFP immunoprecipitates of REV3L-YFP or YFP only from weakly cross-linked HEK293T cells; in-gel tryptic digestion, Orbitrap Elite; three biological replicas compared to the YFP control
binder,measurement,value
B1,binding,binds
